No constants are given. Whether binding was seen depends on the method and setting. Binding seen in cells or lysates may run through a third protein. Some entries that bind do so weakly or less than the wild type.
Tests used:
[1] = molecular target: T1, Rpt1 (S. cerevisiae (endogenous in the yeast strain)) (UniProt P33299); assay: cross-linking; DSSO (lysine-lysine) XL-MS of 100 μg affinity purified yeast 26S proteasome in PBS pH 7.4, 2.5 or 5 mM DSSO, 1 h 25 °C; LC-MSn; two biological replicates
T1 sequence: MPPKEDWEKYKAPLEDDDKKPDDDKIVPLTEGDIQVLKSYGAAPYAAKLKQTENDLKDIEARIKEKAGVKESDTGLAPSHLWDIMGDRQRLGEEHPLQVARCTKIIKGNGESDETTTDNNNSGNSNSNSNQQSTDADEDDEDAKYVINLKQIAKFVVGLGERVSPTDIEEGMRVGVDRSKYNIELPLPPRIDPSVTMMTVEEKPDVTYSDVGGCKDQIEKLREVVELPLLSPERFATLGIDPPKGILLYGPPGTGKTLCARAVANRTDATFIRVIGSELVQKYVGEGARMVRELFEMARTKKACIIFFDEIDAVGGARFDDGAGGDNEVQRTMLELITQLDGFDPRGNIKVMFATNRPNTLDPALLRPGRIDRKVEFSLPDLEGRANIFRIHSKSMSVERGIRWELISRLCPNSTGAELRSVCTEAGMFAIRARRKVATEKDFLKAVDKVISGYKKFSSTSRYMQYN

The chains behind the UniProt entries cited, without tags or fusion partners.
UniProt P40327: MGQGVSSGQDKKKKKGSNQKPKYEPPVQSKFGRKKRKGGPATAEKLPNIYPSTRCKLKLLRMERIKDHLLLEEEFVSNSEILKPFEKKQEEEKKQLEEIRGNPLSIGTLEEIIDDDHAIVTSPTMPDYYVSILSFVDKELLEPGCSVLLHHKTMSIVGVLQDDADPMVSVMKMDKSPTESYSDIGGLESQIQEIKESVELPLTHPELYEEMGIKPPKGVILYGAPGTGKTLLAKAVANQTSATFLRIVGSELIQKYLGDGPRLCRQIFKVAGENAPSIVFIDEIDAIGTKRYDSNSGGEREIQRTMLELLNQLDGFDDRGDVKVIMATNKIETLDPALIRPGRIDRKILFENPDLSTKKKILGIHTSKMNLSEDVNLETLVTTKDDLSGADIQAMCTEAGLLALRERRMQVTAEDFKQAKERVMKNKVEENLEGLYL
UniProt Q01939: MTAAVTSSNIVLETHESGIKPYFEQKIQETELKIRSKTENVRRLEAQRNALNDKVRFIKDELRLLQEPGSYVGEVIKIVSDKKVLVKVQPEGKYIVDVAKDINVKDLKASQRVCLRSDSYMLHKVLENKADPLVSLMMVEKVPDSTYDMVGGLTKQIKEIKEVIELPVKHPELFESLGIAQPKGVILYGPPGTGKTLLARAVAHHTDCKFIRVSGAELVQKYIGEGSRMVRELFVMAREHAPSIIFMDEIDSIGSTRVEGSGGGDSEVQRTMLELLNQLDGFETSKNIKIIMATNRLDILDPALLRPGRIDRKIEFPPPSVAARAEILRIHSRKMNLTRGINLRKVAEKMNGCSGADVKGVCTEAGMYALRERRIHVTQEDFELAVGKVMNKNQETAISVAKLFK
UniProt P43593: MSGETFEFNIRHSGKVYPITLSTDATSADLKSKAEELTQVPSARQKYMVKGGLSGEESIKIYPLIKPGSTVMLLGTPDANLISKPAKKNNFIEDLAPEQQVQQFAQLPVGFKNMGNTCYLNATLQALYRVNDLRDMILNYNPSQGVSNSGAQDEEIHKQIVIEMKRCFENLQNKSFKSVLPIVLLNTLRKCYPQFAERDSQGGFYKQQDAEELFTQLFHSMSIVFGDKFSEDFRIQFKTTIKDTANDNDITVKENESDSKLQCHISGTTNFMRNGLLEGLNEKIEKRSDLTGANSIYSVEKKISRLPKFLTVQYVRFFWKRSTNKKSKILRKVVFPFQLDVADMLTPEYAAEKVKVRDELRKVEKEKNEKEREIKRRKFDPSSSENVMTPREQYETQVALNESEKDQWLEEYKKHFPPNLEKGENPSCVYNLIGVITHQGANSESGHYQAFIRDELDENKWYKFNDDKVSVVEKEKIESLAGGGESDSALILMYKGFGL
UniProt P38737: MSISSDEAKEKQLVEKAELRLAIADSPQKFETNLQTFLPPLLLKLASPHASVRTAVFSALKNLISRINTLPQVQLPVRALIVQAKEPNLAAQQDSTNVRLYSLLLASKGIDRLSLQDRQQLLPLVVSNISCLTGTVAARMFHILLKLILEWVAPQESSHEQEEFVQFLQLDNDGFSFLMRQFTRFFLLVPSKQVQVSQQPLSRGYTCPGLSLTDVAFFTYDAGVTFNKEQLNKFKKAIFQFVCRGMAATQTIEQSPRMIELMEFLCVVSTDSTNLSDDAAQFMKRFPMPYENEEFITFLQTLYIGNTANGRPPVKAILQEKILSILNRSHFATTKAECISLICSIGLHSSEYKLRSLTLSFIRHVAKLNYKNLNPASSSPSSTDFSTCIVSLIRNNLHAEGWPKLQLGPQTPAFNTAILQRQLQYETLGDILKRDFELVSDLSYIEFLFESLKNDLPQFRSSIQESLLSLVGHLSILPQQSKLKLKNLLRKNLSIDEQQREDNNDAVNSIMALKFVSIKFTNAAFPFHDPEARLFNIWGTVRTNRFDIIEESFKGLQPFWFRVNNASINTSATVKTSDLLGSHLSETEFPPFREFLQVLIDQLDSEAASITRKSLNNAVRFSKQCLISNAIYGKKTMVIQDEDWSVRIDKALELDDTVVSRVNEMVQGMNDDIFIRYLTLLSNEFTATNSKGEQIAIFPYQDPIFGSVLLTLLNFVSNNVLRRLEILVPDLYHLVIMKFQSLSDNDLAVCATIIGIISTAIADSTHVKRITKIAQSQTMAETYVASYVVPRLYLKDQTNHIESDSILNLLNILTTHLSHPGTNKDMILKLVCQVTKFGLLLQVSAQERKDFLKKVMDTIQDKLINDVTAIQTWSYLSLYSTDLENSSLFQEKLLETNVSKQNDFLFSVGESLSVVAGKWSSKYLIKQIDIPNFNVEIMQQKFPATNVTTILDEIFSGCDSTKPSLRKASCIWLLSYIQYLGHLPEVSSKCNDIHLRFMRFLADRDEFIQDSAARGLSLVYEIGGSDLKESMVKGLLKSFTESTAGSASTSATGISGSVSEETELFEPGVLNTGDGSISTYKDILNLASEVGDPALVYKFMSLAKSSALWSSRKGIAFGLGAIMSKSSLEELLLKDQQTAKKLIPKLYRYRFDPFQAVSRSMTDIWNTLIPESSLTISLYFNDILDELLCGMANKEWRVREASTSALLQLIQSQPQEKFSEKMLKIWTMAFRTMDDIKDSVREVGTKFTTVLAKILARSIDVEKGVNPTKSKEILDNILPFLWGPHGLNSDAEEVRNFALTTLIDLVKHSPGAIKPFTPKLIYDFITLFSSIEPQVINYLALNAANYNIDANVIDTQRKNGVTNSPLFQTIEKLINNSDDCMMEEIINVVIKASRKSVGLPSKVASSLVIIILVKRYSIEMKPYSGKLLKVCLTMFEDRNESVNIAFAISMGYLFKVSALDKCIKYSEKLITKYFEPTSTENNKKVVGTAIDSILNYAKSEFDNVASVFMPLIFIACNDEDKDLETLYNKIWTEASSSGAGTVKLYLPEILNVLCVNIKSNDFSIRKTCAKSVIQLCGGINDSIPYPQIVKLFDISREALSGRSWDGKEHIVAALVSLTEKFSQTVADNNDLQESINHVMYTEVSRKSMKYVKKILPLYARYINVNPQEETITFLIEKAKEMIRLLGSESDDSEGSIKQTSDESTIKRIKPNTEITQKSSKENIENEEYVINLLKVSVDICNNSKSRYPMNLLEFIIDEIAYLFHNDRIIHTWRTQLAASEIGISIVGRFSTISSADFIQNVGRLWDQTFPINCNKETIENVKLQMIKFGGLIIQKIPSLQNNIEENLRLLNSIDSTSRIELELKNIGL
UniProt Q12495: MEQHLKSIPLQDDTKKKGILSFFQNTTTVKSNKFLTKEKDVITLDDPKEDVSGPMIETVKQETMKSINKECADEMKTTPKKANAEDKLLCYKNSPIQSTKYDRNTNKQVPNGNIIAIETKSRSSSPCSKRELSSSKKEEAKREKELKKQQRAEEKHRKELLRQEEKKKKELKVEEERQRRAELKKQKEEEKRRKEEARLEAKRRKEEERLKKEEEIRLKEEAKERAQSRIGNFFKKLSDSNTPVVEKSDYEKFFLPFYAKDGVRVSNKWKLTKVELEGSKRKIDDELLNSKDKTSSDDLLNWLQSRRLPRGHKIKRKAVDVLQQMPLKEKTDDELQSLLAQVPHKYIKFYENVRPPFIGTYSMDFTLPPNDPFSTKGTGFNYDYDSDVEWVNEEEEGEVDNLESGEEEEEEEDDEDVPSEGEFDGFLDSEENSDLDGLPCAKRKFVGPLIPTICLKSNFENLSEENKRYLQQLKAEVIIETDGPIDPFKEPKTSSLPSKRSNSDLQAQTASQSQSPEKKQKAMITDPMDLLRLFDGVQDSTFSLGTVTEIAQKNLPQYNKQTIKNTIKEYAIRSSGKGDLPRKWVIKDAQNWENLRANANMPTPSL

[2] = molecular target: Rpt2 (S. cerevisiae (endogenous in the yeast strain)) (UniProt P40327); assay: as above
[3] = molecular target: T2, Rpn8 (S. cerevisiae (endogenous in the yeast strain)) (UniProt Q08723); assay: cross-linking; SDASO-L, -M and -S (NHS-diazirine) XL-MS of 100 μg affinity purified yeast 26S proteasome in PBS pH 7.4, 20 mM linker, 1 h 25 °C in the dark, UV 365 nm 30 min on ice; trypsin (SDASO-L also chymotrypsin) digests, LC-MSn; triplicates
T2 sequence: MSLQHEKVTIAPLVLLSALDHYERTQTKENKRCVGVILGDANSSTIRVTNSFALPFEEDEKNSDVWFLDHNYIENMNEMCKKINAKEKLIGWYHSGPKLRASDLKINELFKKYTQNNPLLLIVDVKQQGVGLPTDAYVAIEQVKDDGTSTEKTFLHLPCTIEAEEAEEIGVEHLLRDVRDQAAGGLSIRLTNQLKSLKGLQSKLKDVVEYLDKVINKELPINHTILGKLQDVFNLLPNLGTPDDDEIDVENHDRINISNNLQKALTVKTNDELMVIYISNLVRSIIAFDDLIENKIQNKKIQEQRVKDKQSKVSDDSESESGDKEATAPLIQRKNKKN

[4] = molecular target: T3, Rpn2 (S. cerevisiae (endogenous in the yeast strain)) (UniProt P32565); assay: as above
T3 sequence: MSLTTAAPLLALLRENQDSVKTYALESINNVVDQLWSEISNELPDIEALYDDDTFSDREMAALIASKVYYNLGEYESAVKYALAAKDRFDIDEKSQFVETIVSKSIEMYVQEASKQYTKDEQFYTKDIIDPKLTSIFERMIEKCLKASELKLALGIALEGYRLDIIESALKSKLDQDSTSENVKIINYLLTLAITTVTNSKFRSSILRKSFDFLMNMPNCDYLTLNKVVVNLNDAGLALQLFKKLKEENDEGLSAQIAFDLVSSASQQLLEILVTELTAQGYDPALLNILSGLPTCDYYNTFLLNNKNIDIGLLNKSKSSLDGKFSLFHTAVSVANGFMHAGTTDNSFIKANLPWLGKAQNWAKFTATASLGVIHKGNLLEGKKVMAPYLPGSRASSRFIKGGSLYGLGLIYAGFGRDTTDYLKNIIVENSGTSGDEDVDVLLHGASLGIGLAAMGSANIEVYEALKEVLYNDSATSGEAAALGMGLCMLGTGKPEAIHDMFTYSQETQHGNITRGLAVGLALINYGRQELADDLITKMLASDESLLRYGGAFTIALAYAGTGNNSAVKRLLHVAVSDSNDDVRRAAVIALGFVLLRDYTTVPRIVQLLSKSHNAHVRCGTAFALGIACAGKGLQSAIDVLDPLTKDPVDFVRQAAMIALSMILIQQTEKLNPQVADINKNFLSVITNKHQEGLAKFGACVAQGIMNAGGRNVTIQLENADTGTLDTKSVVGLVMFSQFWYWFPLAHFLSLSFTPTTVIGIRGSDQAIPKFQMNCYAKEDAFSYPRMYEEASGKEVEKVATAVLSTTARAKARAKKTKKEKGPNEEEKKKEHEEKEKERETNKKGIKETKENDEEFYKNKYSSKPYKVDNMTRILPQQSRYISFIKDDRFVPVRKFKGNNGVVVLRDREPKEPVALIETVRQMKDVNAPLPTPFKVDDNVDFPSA

[5] = molecular target: Rpt2 (S. cerevisiae (endogenous in the yeast strain)) (UniProt P40327); assay: as above
[6] = molecular target: T4, Rpn1 (S. cerevisiae (endogenous in the yeast strain)) (UniProt P38764); assay: as above
T4 sequence: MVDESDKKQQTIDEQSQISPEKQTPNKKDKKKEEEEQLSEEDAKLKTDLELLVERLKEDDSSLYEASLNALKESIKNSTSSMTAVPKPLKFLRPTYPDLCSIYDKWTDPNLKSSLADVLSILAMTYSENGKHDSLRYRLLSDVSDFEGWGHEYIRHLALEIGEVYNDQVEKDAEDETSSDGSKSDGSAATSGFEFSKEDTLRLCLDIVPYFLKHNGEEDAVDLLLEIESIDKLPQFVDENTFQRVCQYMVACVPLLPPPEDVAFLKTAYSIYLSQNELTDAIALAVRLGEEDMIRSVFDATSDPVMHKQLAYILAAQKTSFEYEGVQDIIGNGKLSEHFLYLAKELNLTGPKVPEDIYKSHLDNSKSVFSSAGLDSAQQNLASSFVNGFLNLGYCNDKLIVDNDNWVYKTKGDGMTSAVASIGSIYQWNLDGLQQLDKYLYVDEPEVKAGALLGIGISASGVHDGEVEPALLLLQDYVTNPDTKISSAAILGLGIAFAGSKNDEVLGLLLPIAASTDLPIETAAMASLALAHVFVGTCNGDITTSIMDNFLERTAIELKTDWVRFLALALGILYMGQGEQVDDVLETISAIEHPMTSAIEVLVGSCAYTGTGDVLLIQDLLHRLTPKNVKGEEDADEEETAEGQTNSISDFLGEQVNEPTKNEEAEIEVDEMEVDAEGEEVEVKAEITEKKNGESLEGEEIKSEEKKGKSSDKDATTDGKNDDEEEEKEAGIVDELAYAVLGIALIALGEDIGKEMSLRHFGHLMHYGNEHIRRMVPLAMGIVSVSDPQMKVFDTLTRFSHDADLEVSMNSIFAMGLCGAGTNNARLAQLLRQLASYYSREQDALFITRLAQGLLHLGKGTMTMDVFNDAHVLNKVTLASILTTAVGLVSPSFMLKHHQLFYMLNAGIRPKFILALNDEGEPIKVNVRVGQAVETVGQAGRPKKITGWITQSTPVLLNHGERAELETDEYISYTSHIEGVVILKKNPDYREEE

[7] = molecular target: T5, Rpt3 (S. cerevisiae (endogenous in the yeast strain)) (UniProt P33298); assay: cross-linking; DSSO (lysine-lysine) XL-MS of 100 μg affinity purified yeast 26S proteasome in PBS pH 7.4, 2.5 or 5 mM DSSO, 1 h 25 °C; LC-MSn; two biological replicates
T5 sequence: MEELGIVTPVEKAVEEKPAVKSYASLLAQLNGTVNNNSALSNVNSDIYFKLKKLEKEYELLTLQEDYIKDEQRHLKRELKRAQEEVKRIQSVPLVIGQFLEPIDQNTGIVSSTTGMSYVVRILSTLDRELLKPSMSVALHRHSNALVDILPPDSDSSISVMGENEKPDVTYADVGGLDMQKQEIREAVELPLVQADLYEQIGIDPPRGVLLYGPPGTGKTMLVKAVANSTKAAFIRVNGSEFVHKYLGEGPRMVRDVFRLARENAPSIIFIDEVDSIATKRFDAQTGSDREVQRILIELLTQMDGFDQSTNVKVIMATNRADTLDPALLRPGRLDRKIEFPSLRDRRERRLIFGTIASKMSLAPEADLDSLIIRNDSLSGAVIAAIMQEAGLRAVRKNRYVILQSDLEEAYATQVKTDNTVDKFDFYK

[8] = molecular target: T6, Rpn6 (S. cerevisiae (endogenous in the yeast strain)) (UniProt Q12377); assay: as above
T6 sequence: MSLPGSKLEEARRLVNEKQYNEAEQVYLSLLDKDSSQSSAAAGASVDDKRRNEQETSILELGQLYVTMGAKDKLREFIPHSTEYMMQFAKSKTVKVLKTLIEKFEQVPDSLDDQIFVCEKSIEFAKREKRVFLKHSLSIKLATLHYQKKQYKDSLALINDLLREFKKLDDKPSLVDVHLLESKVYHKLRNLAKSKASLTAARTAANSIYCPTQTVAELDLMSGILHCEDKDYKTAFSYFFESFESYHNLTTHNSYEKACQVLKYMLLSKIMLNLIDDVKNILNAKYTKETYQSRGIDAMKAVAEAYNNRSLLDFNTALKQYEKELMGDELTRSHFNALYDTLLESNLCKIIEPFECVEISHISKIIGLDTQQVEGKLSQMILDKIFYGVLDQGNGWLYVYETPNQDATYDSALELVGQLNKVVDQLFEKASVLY

[9] = molecular target: T4, Rpn1 (S. cerevisiae (endogenous in the yeast strain)); assay: as above
[10] = molecular target: T5, Rpt3 (S. cerevisiae (endogenous in the yeast strain)); assay: cross-linking; SDASO-L, -M and -S (NHS-diazirine) XL-MS of 100 μg affinity purified yeast 26S proteasome in PBS pH 7.4, 20 mM linker, 1 h 25 °C in the dark, UV 365 nm 30 min on ice; trypsin (SDASO-L also chymotrypsin) digests, LC-MSn; triplicates
[11] = molecular target: Rpt6 (S. cerevisiae (endogenous in the yeast strain)) (UniProt Q01939); assay: as above
[12] = molecular target: T3, Rpn2 (S. cerevisiae (endogenous in the yeast strain)); assay: cross-linking; DSSO (lysine-lysine) XL-MS of 100 μg affinity purified yeast 26S proteasome in PBS pH 7.4, 2.5 or 5 mM DSSO, 1 h 25 °C; LC-MSn; two biological replicates
[13] = molecular target: T7, 20S core particle subunit α5 (S. cerevisiae (endogenous in the yeast strain)) (UniProt P32379); assay: cross-linking; SDASO-L, -M and -S (NHS-diazirine) XL-MS of 100 μg affinity purified yeast 26S proteasome in PBS pH 7.4, 20 mM linker, 1 h 25 °C in the dark, UV 365 nm 30 min on ice; trypsin (SDASO-L also chymotrypsin) digests, LC-MSn; triplicates
T7 sequence: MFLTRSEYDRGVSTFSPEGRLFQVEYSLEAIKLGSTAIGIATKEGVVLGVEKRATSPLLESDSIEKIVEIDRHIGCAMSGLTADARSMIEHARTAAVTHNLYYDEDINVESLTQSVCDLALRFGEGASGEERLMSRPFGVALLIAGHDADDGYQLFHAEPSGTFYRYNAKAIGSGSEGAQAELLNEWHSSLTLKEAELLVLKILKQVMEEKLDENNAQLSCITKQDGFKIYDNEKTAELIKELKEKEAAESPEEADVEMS

Measured: binding

Ubp6 (from UniProt P43593 1-499) (enzyme)
binds: [1] | [2] | [3] | [4] | [5] | [6]

Ecm29 (from UniProt P38737 1-1868)
binds: [7] | [8] | [1] | [9] | [10] | [11]

Rlf2 (from UniProt Q12495 1-606)
binds: [12] | [4]

B1: 20S core particle subunit α4 (protein, UniProt P40303 1-254)
chain: MSGYDRALSIFSPDGHIFQVEYALEAVKRGTCAVGVKGKNCVVLGCERRSTLKLQDTRITPSKVSKIDSHVVLSFSGLNADSRILIEKARVEAQSHRLTLEDPVTVEYLTRYVAGVQQRYTQSGGVRPFGVSTLIAGFDPRDDEPKLYQTEPSGIYSSWSAQTIGRNSKTVREFLEKNYDRKEPPATVEECVKLTVRSLLEVVQTGAKNIEITVVKPDSDIVALSSEEINQYVTQIEQEKQEQQEQDKKKKSNH
binds: [13]

From PMC8214149
